PubChem BioAssay AID652243, Drosophila RNAi Screening Center, 2013

Screen: 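Fly regulators of androgen-dependent reporter output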 (primary screen)
System: Drosophila S2R+ cells
Knock-down reagent: long dsRNA against Drosophila genes
Timing: 72 h (48 h, then 24 h hormone)
Treatment: synthetic androgen R1881 at 10 nM for 24 h
Measured: 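Per-well raw luminescence of the androgen-driven firefly reporter and of the Renilla control, two replicates each, without normalisation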
Reading the numbers: firefly reporter light: higher = more light from androgen-responsive reporter; Renilla control light: higher = more constitutive control signal (cell number, transfection)
Hit rule: 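Across duplicate plates, a knock-down whose log firefly/Renilla ratio shifted a set fold down or up from the GFP/LacZ control mean was a hit; the downward cut appears as both 1.5 and 3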
Meaning of the calls: active = hit: reporter lowered or raised; inactive = no hit
The deposit covers about 24,000 reagents; this is a random part of those with a known target gene and a result. In the full data, 246 (1%) are marked active. 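Plates not normalised; calls are printed but the firefly/Renilla ratio behind them is not deposited; fold cut for lowering reported inconsistently.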 Raw values are not corrected between plates. The numbers tell different reagents against one gene apart. Not stated in the record: the amount of reagent.

| gene knocked down | reagent no. | firefly reporter light, replicate 1 | firefly reporter light, replicate 2 | Renilla control light, replicate 1 | Renilla control light, replicate 2 | activity call |
| --- | --- | --- | --- | --- | --- | --- |
| CG11905 (GeneID 39895) | 1 | 42157 | 24801 | 5.93e5 | 4.08e5 | inactive |
| CG11905 (GeneID 39895) | 2 | 9.29e5 | 8.68e5 | 8.08e5 | 9.62e5 | inactive |
| foi (GeneID 38976) | 1 | 1.66e5 | 1.59e5 | 2.17e6 | 2.03e6 | inactive |
| foi (GeneID 38976) | 2 | 2.58e5 | 4.35e5 | 6.91e5 | 6.91e5 | inactive |
| Ir40a (GeneID 35449) | 1 | 2.36e5 | 2.79e5 | 1.42e6 | 1.34e6 | inactive |
| Ir40a (GeneID 35449) | 2 | 2.41e5 | 2.66e5 | 1.53e6 | 1.13e6 | inactive |
| Polr3F (GeneID 42619) | 1 | 3.66e5 | 4.21e5 | 3.64e6 | 3.37e6 | inactive |
| RpS6 (GeneID 31700) | 1 | 36911 | 24182 | 1.56e5 | 2.65e5 | inactive |
| RpS6 (GeneID 31700) | 2 | 2.36e5 | 1.44e5 | 8.68e5 | 3.11e5 | inactive |
| CG10479 (GeneID 38674) | 1 | 8.65e5 | 7.83e5 | 7.43e5 | 1.01e6 | inactive |
| nullo (GeneID 31652) | 1 | 3.01e5 | 4.21e5 | 3.15e6 | 3.16e6 | inactive |
| nullo (GeneID 31652) | 2 | 6.11e5 | 5.62e5 | 1.09e6 | 1.09e6 | inactive |
| Gasp (GeneID 40745) | 1 | 68530 | 44002 | 5.58e5 | 5.09e5 | inactive |

4 entries already listed, ordered by “Renilla control light, replicate 2”, lowest first:
| gene knocked down | reagent no. | firefly reporter light, replicate 1 | firefly reporter light, replicate 2 | Renilla control light, replicate 1 | Renilla control light, replicate 2 | activity call |
| --- | --- | --- | --- | --- | --- | --- |
| Gasp (GeneID 40745) | 1 | 68530 | 44002 | 5.58e5 | 5.09e5 | inactive |
| CG10479 (GeneID 38674) | 1 | 8.65e5 | 7.83e5 | 7.43e5 | 1.01e6 | inactive |
| nullo (GeneID 31652) | 2 | 6.11e5 | 5.62e5 | 1.09e6 | 1.09e6 | inactive |
| nullo (GeneID 31652) | 1 | 3.01e5 | 4.21e5 | 3.15e6 | 3.16e6 | inactive |

The listing continues:
| gene knocked down | reagent no. | firefly reporter light, replicate 1 | firefly reporter light, replicate 2 | Renilla control light, replicate 1 | Renilla control light, replicate 2 | activity call |
| --- | --- | --- | --- | --- | --- | --- |
| APC7 (GeneID 31594) | 1 | 1.42e5 | 59730 | 8.45e5 | 5.85e5 | inactive |
| APC7 (GeneID 31594) | 2 | 4.39e5 | 3.38e5 | 6.99e5 | 4.29e5 | inactive |
| Cyp12a4 (GeneID 42294) | 1 | 2.38e5 | 2.46e5 | 2.80e6 | 3.17e6 | inactive |
| Cyp12a4 (GeneID 42294) | 2 | 3.85e5 | 5.24e5 | 3.79e5 | 5.61e5 | inactive |
| Acph-1 (GeneID 48445) | 1 | 1.99e5 | 1.61e5 | 2.03e6 | 2.13e6 | inactive |
| Acph-1 (GeneID 48445) | 2 | – | – | – | – | inactive |
| CG13002 (GeneID 32681) | 1 | 6.37e5 | 5.03e5 | 4.55e6 | 2.97e6 | inactive |
| CG13002 (GeneID 32681) | 2 | 4.51e5 | 5.03e5 | 9.52e5 | 9.52e5 | inactive |
| CG5107 (GeneID 43084) | 1 | 91697 | 81581 | 3.42e5 | 5.82e5 | inactive |
| CG6337 (GeneID 36530) | 1 | 1.28e5 | 1.64e5 | 3.89e6 | 3.89e6 | inactive |
| CG6337 (GeneID 36530) | 2 | 5.58e5 | 5.05e5 | 1.71e6 | 1.62e6 | inactive |
| CG11655 (GeneID 32472) | 1 | 3.80e5 | 3.88e5 | 2.86e6 | 2.75e6 | inactive |
| Gnpat (GeneID 53586) | 1 | 1.63e5 | 1.43e5 | 2.30e6 | 2.17e6 | inactive |
| CG12744 (GeneID 36024) | 1 | 1.15e6 | 1.53e6 | 1.85e6 | 2.08e6 | inactive |
| alpha-Spec (GeneID 38231) | 1 | 9.54e5 | 1.07e6 | 2.25e6 | 2.59e6 | inactive |
| Ac78C (GeneID 40333) | 1 | 1.23e5 | 1.15e5 | 1.64e5 | 1.27e5 | inactive |
| Ac78C (GeneID 40333) | 2 | 1.98e5 | 1.35e5 | 1.94e6 | 2.01e6 | inactive |
| Ac78C (GeneID 40333) | 3 | 3.97e5 | 3.41e5 | 2.64e6 | 3.70e6 | inactive |
| CG10041 (GeneID 41496) | 1 | 1.93e5 | 2.22e5 | 2.96e6 | 3.47e6 | inactive |
| CG10041 (GeneID 41496) | 2 | 5.48e5 | 6.40e5 | 7.93e5 | 7.93e5 | inactive |
| CG5510 (GeneID 42872) | 1 | 1.99e5 | 2.83e5 | 2.43e6 | 2.10e6 | inactive |
| CG15890 (GeneID 32401) | 1 | 4.66e5 | 5.10e5 | 3.12e6 | 3.09e6 | inactive |
| gsb (GeneID 38005) | 1 | 3.05e5 | 3.13e5 | 2.08e6 | 2.26e6 | inactive |
| gsb (GeneID 38005) | 2 | 4.23e5 | 4.29e5 | 7.39e5 | 4.16e5 | inactive |
| WDR79 (GeneID 33865) | 1 | 2.64e5 | 4.53e5 | 9.30e5 | 8.06e5 | inactive |
| CG14565 (GeneID 40423) | 1 | 3.51e5 | 2.94e5 | 3.41e6 | 3.27e6 | inactive |
| CG14565 (GeneID 40423) | 2 | 5.05e5 | 3.69e5 | 6.91e5 | 6.59e5 | inactive |
